Measurements taken from article PMC9749133.
These are yes or no findings as the source states them, for the method shown. Some binding calls cover weakened binding; strength is not graded here. Tags and fused reporters may be left off the sequences shown.

Chains of the proteins cited; added tags and fusions are not shown. Lines headed by an entry give the natural chain unless they say otherwise; changes in a name come on top. Residues count along the entry.
UniProt P25776: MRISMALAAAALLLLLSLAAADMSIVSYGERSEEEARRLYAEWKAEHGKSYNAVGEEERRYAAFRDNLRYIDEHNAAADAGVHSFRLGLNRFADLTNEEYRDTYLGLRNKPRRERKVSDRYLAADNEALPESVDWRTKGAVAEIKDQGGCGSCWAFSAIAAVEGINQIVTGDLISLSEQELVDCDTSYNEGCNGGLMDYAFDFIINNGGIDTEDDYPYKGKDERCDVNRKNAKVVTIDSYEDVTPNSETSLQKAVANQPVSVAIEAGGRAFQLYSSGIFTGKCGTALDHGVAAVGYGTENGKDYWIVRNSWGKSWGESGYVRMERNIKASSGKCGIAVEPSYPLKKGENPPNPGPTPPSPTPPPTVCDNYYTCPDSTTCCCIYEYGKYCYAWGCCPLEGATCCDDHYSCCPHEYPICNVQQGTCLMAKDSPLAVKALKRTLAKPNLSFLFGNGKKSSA
BD-OCP-4 (OCP 1-348 aa, in pGBKT7) (rice (Oryza sativa)): residues 1-348 of P25776
BD-OCP-2 (OCP 111-348 aa, in pGBKT7) (rice (Oryza sativa)): residues 111-348 of P25776

Key:
Experiment in all cases: two-hybrid; directed test in yeast strain Gold Y2H: pGBKT7 (BD) bait and pGADT7 (AD) prey; growth on SD/-Ade-His-Leu-Trp with X-alpha-gal, 30°C
[1] = target: BD-OCP-4 (OCP 1-348 aa, in pGBKT7) (rice (Oryza sativa)) (UniProt P25776)
[2] = target: BD-OCP-2 (OCP 111-348 aa, in pGBKT7) (rice (Oryza sativa)) (UniProt P25776)
[3] = target: BD-OCP (oryzain alpha chain precursor, full length, in pGBKT7) (rice (Oryza sativa)) (UniProt P25776)

Measured: binding

B1: AD-OsSNAP32 (synaptosome-associated protein of 32 kD, full-length coding region in pGADT7) (protein, UniProt Q0E1I7 1-283)
chain: MSGRRSFFASKKPSRSSNPFDSDSDDGGREQRPARASSVPPPADQRGSLFGGGDGFSASSAAARSRYRNDFRDTGGVEAQSVQELEGYAAYKAEETTQRVQGCVRIAEEMRDTASKSLVTIHQQGQQITRTHMMTLDIDQDLSRSEKLLGDLGGIFSKKWKPKKNGEIRGPMLTRDDSFIRKGSHLEQRHKLGLSDHPPQSNARQFHSEPTSALQKVEMEKAKQDDGLSDLSNILTELKGMAVDMGTEIDRQTKALGDSEKDYDELNFRIKGANTRARRLLGK
binds: all assays above
